Laboratory results as given in the supplement of paper PMC11732987, “Enantioselective OTUD7B fragment discovery through chemoproteomics screening and high-throughput optimisation” (Communications Chemistry, 2025).
The other results are listed elsewhere or left out. The data scatter; read single values as rough.

Chains of the proteins cited; added tags and fusions are not shown. Lines headed by an entry give the natural chain unless they say otherwise; changes in a name come on top. Residues count along the entry.
UniProt Q9BW85, 271-292: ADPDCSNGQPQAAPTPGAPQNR
UniProt Q9H6R7: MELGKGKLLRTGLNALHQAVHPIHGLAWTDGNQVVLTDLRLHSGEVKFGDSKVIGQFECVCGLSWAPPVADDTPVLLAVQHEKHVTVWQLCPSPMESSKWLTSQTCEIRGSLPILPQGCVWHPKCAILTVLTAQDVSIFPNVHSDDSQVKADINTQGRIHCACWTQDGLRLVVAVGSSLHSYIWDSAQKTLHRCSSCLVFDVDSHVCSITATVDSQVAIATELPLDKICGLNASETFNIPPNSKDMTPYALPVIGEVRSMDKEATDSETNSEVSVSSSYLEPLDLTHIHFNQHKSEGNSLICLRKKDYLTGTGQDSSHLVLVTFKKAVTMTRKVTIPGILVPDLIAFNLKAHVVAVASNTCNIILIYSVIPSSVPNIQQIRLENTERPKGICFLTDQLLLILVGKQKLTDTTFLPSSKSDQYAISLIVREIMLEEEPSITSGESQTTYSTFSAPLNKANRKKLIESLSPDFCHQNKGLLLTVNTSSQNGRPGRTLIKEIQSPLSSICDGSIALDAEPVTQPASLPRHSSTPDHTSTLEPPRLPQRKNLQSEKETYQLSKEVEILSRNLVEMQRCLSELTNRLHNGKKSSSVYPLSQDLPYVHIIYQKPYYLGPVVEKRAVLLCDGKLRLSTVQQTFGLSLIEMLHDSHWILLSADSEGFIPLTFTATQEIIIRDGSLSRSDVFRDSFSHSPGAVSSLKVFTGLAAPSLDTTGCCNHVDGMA
UniProt Q6PJI9: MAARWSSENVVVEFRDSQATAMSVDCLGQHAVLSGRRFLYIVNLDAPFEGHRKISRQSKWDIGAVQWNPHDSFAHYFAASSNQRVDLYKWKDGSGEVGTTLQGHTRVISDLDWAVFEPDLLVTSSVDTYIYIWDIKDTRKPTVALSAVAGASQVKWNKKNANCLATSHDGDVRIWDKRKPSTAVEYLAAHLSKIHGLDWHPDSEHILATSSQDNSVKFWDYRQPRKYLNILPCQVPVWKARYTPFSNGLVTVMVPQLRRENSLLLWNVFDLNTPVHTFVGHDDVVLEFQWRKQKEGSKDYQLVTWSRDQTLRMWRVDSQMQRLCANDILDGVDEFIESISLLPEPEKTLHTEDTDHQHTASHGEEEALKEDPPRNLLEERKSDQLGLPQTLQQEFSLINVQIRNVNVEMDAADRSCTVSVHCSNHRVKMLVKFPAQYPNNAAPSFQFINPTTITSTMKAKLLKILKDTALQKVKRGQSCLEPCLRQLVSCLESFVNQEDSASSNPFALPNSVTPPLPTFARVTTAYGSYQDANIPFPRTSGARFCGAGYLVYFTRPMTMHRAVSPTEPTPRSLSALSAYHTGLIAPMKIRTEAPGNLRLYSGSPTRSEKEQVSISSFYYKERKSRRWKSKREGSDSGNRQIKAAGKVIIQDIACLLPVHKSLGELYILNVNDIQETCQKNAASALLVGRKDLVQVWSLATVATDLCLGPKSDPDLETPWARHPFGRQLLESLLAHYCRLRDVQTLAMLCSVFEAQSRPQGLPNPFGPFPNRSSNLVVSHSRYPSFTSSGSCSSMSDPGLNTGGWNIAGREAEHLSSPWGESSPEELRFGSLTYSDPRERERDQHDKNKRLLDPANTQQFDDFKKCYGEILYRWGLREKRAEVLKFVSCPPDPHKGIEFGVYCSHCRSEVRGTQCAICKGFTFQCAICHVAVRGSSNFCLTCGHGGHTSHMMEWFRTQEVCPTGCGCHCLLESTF
UniProt Q9NRW7, 346-371: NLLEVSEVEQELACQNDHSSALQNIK
UniProt Q8N3P4: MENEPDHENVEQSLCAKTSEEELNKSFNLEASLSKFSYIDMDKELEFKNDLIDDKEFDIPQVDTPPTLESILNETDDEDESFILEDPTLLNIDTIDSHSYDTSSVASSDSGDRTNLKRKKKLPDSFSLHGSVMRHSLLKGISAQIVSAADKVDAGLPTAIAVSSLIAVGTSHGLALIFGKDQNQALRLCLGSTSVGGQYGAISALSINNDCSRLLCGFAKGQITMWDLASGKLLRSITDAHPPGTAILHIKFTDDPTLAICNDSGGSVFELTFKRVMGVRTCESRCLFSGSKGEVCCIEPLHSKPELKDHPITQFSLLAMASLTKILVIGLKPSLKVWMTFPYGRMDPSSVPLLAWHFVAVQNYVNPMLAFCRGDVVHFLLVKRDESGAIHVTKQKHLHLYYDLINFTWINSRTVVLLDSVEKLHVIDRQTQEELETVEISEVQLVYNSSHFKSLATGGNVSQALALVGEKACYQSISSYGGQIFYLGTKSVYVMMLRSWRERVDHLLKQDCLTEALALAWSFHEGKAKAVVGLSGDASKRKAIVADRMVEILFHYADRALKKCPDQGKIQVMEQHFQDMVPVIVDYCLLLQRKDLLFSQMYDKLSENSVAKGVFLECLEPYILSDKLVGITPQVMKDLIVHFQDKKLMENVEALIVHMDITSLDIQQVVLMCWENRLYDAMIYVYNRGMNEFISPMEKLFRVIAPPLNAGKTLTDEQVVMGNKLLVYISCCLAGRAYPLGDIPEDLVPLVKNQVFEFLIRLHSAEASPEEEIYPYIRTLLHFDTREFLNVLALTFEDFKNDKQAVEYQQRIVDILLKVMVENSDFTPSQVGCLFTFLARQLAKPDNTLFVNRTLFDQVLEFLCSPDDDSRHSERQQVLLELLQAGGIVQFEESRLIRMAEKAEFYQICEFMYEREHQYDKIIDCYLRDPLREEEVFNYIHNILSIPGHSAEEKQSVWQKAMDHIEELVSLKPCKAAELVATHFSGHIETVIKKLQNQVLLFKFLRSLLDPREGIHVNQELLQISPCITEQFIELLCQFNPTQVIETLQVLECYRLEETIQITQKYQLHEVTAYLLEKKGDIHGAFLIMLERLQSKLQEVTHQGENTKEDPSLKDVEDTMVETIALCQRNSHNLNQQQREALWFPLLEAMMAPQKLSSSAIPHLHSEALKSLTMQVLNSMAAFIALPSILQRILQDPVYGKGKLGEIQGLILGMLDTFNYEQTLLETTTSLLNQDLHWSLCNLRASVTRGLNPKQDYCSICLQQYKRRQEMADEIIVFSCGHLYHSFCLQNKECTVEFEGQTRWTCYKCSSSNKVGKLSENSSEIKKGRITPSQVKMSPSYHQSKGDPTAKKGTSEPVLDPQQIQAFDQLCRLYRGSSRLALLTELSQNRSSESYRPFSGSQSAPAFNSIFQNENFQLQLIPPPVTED
UniProt Q8NBI6: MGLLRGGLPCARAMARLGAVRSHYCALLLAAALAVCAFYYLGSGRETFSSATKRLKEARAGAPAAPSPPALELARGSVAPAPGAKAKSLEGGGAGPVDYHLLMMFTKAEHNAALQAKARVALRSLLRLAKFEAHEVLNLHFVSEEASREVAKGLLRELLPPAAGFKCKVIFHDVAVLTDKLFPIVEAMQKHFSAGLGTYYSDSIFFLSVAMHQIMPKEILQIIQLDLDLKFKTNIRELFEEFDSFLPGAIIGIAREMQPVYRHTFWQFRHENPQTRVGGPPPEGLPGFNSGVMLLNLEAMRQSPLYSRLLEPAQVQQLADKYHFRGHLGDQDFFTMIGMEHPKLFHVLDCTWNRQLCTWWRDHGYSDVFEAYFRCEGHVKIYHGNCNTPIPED
UniProt Q9Y4E6: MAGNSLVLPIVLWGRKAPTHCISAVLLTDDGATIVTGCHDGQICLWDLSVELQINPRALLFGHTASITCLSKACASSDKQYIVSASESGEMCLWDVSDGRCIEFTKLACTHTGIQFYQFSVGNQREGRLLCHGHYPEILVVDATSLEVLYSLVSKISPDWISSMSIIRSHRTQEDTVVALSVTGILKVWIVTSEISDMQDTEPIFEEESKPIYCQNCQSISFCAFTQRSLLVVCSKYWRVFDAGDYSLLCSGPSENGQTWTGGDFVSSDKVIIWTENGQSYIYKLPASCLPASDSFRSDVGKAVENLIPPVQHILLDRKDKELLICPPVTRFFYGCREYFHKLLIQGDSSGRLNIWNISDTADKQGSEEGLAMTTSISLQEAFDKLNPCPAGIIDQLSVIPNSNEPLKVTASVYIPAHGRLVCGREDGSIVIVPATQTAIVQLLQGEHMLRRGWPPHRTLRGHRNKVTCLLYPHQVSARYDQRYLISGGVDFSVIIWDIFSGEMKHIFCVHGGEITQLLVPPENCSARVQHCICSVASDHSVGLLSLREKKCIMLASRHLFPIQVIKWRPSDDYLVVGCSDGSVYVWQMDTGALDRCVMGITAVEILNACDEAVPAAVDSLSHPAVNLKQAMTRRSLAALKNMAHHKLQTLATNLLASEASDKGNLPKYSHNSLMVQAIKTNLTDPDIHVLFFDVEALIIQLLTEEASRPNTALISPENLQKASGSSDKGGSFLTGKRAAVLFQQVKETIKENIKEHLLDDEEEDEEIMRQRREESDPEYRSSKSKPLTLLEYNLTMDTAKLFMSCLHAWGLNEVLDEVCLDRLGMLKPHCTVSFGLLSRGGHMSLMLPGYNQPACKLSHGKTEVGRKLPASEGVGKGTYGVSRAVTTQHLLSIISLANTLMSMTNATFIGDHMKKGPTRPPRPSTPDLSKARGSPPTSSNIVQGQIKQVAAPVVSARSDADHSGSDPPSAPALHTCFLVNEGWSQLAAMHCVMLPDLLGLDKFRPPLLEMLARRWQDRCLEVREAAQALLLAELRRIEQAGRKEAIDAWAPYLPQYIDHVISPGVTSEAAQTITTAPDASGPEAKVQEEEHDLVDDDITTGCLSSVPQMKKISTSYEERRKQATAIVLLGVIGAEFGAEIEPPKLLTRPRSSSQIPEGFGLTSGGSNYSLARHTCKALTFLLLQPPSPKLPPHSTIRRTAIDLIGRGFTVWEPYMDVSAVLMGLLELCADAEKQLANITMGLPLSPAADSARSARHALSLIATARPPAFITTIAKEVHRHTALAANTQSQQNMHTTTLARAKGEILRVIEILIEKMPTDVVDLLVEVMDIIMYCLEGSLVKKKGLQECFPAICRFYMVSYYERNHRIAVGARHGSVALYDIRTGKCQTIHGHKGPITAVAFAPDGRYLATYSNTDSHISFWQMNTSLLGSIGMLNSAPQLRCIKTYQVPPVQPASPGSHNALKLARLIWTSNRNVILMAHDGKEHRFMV
UniProt P07947: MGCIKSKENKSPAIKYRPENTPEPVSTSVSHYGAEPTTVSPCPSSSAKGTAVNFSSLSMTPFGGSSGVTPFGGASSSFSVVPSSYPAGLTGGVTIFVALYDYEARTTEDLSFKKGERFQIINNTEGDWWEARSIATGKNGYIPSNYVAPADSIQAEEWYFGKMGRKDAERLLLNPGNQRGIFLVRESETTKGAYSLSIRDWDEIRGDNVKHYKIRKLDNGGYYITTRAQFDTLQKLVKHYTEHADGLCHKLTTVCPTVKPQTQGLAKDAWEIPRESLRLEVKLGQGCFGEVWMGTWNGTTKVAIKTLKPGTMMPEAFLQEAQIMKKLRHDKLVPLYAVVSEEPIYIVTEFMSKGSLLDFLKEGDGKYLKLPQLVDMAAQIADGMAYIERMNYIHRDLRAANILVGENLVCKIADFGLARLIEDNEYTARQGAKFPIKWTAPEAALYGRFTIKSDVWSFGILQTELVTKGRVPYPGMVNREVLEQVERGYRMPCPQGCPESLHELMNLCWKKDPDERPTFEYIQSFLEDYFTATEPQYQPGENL
UniProt Q9P1Q0: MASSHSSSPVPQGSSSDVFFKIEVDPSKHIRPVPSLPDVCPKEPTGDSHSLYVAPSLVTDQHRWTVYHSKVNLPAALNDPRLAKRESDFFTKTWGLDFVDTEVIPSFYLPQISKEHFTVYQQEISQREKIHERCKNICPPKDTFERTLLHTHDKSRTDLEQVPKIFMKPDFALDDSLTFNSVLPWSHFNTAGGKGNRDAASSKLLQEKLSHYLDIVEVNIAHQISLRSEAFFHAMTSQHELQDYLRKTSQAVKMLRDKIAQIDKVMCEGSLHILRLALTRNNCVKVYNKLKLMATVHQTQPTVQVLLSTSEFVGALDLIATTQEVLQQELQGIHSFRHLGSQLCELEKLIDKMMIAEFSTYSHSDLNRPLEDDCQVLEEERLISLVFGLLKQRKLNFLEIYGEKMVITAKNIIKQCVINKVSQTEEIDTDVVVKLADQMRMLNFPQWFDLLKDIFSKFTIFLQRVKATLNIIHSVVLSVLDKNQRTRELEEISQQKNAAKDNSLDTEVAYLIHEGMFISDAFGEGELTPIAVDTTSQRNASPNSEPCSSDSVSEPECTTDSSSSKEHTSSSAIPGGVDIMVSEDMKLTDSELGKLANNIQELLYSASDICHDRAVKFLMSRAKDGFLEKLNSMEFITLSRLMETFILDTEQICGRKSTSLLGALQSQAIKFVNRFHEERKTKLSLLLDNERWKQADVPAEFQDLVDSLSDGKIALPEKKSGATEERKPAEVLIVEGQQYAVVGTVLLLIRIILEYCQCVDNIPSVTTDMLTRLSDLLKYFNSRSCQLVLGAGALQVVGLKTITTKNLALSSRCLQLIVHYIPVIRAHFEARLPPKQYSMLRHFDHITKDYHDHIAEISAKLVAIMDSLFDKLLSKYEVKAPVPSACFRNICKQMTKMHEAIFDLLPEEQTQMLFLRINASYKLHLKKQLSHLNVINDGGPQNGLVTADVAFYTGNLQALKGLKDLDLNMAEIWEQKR

Key:
[1] = compound: ClCC(=O)N[C@@H]1CCCc2ccccc12; test: log2 mean competition ratio of IA-DTB cysteine labelling (DMSO/compound) (log2 ratio); higher = stronger cysteine engagement by compound; conditions: treatment time: 4 h, cell line lysate: HEK293T
Description: (§1)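 IA-DTB competitive cysteine chemoproteomics in HEK293T RIPA lysate. Lysates were treated with compound 29 or 30 at 50 or 200 µM for 4 h, then IA-DTB (500 µM, 1 h), trypsin-digested, NeutrAvidin-enriched and analysed by diaPASEF. Competition ratio = intensity DMSO / intensity compound (n=4 treated, n=64 DMSO); binding: mean log2 CR ≥ 1 and p ≤ 0.05 plus QC filters. Target is the cysteine site.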

[2] = compound: ClCC(=O)N[C@H]1CCCc2ccccc12; test: as above; conditions: treatment time: 4 h, cell line lysate: HEK293T
Description: as §1

Row | Target | log2 mean competition ratio ([1]; 50 µM) | log2 mean competition ratio ([1]; 200 µM) | log2 mean competition ratio ([2]; 50 µM) | log2 mean competition ratio ([2]; 200 µM)
1 | VPS53 C311 (UniProt Q5VIR6) | 0.162 | 0.0735 | 0.664 | 0.583
2 | YJU2 C275 (UniProt Q9BW85) | -0.192 | 0.0418 | -0.427 | -0.0869
3 | WDR11 C1071 (UniProt Q9BZH6) | 0.176 | -0.611 | -0.518 | -0.534
4 | WDCP C574 (UniProt Q9H6R7) | 0.0796 | -0.0226 | -0.107 | -0.0917
5 | WDR26 C238 | -0.0113 | -0.212 | 0.192 | -0.128
6 | WDR59 C163 (UniProt Q6PJI9) | -0.0679 | -0.418 | -0.264 | 0.0442
7 | YARS1 C501 | 0.261 | -0.003 | 0.0439 | 0.0824
8 | XRCC1 C389 | -0.0333 | 0.228 | 0.26 | 0.211
9 | VPS45 C359 (UniProt Q9NRW7) | -0.224 | -0.119 | 0.289 | -0.535
10 | VPS8 C974 (UniProt Q8N3P4) | 0.574 | 1.12 | 0.184 | 0.858
11 | XXYLT1 C10 (UniProt Q8NBI6) | 0.169 | 0.271 | 0.315 | 0.432
12 | VPS8 C216 (UniProt Q8N3P4) | 0.0495 | 0.0437 | -0.125 | -0.0791
13 | VSTM4 C219 | 0.0528 | -0.105 | -0.012 | -0.0782
14 | ZC3H7A C594 (UniProt Q8IWR0) | -0.0043 | 0.0386 | -0.362 | -0.151
15 | WDR7 C326 (UniProt Q9Y4E6) | -0.335 | -0.0252 | -0.404 | -0.0898
16 | YES1 C248 (UniProt P07947) | -0.239 | 0.0938 | -0.465 | -0.0283
17 | VPS54 C886 (UniProt Q9P1Q0) | -0.0282 | 0.254 | 0.118 | 0.496

Individual results from the entries so far:
VPS8 C974 (UniProt Q8N3P4) | log2 mean competition ratio ([1]; 200 µM): 1.12
WDR7 C326 (UniProt Q9Y4E6) | log2 mean competition ratio ([2]; 50 µM): -0.404
